Source: publication PMC9141077
Results are given in words; binding and its absence hold for the method and conditions named. In cells and extracts the contact can be indirect. Some entries that bind do so weakly or less than the wild type.

Amino acid sequences for entries named in this document (tags omitted). A change or cut given only in a name is not applied to a line headed by its entry. Residues count along the entry.
UniProt P13612, residues 34-1032: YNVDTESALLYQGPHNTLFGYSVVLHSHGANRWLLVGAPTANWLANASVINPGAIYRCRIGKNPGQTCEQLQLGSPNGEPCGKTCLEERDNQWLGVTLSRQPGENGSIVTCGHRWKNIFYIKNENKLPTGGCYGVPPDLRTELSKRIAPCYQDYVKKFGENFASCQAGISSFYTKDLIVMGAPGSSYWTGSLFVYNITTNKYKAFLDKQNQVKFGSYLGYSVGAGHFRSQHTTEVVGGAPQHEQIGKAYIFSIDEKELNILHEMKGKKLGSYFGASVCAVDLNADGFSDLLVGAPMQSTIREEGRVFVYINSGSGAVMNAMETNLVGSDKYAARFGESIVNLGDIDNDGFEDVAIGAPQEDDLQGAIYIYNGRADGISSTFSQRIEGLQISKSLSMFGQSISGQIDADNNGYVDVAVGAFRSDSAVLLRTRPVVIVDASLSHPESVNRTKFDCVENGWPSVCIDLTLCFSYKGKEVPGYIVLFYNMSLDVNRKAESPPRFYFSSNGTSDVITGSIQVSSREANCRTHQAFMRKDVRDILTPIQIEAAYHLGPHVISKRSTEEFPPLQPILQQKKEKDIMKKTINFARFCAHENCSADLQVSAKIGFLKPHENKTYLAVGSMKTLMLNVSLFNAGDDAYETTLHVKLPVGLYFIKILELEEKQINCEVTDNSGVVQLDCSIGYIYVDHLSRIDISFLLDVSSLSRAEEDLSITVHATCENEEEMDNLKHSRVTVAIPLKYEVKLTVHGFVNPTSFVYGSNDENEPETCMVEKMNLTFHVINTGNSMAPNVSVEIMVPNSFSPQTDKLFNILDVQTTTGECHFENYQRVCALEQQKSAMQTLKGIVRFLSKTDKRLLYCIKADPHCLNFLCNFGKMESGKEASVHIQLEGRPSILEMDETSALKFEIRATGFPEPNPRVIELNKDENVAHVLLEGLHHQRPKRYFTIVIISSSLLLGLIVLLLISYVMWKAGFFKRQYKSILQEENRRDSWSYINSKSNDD
UniProt P05556: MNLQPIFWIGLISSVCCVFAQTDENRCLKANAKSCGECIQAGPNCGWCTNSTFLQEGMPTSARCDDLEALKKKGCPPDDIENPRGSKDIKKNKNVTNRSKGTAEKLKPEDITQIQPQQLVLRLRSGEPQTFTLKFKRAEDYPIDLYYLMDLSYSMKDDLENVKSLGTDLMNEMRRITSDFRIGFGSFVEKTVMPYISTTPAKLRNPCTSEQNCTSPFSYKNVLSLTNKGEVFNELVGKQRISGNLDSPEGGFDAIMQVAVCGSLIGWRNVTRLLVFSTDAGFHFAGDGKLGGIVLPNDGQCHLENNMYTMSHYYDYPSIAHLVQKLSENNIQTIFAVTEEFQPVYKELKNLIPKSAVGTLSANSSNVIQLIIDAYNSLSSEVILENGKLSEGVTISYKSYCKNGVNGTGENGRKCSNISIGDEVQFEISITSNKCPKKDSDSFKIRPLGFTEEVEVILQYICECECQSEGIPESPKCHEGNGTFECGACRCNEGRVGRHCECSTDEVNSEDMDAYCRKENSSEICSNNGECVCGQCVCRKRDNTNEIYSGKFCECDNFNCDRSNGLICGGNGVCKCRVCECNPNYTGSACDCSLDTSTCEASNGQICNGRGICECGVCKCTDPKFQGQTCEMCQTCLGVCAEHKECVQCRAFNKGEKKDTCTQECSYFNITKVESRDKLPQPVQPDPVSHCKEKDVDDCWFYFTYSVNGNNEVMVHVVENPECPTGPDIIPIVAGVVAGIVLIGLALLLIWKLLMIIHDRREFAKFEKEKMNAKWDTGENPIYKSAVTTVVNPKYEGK

Target: Mucin-16 (MUC16) bearing fully branched O-glycans, as in wild-type (WT) PDAC cells (human (endogenous in T3M4 and Capan-2)) (UniProt Q8WXI7)
Assay: co-IP; 500 µg lysate of T3M4 and Capan-2 (WT and SC) cells in non-denaturing RIPA buffer; IP with mouse anti-MUC16 (5 µg/mL) or mouse IgG overnight at 4 °C, protein G Sepharose beads 2 h at room temperature; immunoblot for integrins

| binding | Substance |
| --- | --- |
| binds | integrin α4 (from UniProt P13612 34-1032) (receptor) |
| binds | integrin β1 (from UniProt P05556 21-798) (receptor) |
